Data as given in the supplement of paper PMC10849652.
The list shows a part of the results.

Chains of the proteins cited; added tags and fusions are not shown. Lines headed by an entry give the natural chain unless they say otherwise; changes in a name come on top.
UniProt Q16581: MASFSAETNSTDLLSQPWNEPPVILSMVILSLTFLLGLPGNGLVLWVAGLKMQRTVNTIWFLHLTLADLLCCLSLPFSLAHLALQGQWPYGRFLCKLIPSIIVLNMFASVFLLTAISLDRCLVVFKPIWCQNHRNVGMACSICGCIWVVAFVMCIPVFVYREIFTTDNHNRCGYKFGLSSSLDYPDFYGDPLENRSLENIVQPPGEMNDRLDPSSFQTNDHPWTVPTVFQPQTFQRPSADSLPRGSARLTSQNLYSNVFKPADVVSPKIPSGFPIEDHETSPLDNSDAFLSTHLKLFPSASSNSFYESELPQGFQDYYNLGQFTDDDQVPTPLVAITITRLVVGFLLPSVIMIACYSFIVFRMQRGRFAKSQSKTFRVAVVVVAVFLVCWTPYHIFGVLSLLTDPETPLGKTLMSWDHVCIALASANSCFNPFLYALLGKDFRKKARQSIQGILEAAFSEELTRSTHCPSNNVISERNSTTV
UniProt Q9NSK7: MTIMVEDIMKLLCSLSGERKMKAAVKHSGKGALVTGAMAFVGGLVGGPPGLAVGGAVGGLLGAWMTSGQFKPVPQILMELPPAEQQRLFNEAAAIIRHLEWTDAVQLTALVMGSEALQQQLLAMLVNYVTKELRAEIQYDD
UniProt P27482, whole entry, looked up: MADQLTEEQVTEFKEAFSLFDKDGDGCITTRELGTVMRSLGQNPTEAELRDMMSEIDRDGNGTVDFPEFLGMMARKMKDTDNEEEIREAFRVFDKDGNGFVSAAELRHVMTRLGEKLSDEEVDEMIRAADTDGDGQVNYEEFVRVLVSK
UniProt Q9UPA5: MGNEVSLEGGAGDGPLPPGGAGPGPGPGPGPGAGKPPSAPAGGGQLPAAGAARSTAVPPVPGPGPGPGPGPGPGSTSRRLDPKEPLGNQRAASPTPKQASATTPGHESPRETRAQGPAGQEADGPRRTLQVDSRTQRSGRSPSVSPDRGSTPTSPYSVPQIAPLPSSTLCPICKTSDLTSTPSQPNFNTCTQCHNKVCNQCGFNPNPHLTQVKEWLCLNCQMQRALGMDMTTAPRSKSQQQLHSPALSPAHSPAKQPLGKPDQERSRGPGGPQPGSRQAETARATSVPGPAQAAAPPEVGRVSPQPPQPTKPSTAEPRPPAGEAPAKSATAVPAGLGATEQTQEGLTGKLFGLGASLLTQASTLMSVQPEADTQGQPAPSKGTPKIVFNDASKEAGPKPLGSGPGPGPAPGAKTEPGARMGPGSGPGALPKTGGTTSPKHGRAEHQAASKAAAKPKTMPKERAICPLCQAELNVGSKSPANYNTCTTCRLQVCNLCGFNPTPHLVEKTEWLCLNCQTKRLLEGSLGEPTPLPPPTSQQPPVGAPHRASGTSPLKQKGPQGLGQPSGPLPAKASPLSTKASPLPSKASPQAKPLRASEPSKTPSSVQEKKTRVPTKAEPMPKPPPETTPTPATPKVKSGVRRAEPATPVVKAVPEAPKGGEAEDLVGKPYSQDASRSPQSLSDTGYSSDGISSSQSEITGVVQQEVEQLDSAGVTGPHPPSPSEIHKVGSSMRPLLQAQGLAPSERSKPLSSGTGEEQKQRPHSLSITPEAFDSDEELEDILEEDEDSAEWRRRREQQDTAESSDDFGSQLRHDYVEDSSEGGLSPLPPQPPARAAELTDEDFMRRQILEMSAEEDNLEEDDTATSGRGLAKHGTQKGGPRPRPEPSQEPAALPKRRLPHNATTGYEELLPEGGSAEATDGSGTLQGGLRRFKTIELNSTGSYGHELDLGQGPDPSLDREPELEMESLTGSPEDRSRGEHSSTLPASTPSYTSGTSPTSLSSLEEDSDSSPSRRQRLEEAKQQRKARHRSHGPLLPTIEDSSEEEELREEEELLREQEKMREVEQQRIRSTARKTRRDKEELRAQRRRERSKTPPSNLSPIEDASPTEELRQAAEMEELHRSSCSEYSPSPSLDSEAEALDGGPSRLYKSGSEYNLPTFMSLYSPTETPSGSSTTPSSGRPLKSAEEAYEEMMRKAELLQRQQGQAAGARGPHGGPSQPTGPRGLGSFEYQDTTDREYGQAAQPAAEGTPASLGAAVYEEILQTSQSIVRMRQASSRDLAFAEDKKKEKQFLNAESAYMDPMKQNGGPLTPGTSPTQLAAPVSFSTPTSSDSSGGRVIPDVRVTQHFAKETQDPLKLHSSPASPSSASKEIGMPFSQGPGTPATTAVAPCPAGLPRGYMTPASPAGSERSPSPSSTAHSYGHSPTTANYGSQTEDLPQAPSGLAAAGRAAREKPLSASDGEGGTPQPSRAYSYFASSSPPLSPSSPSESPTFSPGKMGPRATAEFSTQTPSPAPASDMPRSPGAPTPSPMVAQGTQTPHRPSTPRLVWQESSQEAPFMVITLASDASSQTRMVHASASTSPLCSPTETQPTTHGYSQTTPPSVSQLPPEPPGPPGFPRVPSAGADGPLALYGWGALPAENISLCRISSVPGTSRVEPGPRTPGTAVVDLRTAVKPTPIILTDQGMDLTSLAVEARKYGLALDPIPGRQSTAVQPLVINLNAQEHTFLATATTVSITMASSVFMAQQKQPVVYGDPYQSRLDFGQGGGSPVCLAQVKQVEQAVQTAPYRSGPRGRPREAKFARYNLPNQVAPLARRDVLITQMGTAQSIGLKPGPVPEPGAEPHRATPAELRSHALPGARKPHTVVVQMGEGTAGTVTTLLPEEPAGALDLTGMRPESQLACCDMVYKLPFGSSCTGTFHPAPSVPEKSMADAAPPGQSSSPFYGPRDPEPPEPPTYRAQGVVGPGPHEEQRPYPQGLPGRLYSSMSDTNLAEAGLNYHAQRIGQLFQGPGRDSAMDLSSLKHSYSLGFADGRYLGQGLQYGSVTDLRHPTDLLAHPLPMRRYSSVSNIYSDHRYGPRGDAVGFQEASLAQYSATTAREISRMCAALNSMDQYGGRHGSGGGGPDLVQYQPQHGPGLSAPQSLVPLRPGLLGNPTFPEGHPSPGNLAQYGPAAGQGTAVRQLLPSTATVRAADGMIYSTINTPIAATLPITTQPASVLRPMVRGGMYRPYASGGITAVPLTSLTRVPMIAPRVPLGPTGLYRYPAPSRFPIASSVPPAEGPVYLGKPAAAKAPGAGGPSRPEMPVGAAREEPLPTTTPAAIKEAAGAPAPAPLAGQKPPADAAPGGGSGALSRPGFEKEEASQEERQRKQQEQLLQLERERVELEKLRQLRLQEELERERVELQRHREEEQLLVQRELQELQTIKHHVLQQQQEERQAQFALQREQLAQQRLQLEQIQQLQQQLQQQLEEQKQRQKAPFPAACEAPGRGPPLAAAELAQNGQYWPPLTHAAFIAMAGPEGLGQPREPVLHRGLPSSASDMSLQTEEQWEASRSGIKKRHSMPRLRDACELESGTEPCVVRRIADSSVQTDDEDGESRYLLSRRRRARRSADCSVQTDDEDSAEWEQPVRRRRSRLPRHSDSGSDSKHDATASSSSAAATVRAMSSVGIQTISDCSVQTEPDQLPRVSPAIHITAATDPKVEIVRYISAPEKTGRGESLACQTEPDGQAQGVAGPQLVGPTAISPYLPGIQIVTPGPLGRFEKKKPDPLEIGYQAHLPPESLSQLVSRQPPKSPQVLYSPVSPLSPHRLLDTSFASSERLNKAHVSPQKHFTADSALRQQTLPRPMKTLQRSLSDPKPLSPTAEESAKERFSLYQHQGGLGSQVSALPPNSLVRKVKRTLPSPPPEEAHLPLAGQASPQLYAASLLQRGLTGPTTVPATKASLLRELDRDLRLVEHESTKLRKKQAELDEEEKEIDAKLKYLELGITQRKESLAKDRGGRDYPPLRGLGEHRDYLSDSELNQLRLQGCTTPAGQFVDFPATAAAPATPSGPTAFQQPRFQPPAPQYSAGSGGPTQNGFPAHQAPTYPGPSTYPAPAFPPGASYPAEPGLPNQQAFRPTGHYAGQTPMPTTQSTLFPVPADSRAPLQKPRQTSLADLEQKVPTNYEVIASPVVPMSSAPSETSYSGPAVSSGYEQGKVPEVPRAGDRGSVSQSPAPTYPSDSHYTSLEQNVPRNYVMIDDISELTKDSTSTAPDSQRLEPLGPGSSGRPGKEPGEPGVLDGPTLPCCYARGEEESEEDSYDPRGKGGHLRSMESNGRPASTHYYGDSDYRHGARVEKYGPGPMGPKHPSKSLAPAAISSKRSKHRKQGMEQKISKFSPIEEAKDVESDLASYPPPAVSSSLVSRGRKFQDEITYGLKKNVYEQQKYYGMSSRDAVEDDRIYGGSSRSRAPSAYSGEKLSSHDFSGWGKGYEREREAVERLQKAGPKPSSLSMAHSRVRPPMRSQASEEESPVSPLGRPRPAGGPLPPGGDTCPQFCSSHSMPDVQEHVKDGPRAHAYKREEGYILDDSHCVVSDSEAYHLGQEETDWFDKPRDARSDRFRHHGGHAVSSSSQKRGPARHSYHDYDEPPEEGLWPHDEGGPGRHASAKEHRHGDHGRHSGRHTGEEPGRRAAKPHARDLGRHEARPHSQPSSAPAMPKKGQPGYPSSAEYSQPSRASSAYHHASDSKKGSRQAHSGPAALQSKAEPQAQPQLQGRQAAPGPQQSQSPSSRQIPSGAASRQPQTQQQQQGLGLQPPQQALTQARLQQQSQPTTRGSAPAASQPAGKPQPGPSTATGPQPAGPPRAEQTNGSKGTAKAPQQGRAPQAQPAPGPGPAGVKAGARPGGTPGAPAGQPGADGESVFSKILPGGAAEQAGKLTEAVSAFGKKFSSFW
UniProt P07451: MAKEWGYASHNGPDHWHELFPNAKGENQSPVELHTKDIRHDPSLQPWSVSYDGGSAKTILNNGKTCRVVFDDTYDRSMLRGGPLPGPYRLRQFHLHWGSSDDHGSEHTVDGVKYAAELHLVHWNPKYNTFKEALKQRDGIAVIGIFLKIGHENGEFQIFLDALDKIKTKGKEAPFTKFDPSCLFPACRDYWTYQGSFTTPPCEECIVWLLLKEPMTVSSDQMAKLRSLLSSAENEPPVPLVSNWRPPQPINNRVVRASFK
UniProt Q9BX69: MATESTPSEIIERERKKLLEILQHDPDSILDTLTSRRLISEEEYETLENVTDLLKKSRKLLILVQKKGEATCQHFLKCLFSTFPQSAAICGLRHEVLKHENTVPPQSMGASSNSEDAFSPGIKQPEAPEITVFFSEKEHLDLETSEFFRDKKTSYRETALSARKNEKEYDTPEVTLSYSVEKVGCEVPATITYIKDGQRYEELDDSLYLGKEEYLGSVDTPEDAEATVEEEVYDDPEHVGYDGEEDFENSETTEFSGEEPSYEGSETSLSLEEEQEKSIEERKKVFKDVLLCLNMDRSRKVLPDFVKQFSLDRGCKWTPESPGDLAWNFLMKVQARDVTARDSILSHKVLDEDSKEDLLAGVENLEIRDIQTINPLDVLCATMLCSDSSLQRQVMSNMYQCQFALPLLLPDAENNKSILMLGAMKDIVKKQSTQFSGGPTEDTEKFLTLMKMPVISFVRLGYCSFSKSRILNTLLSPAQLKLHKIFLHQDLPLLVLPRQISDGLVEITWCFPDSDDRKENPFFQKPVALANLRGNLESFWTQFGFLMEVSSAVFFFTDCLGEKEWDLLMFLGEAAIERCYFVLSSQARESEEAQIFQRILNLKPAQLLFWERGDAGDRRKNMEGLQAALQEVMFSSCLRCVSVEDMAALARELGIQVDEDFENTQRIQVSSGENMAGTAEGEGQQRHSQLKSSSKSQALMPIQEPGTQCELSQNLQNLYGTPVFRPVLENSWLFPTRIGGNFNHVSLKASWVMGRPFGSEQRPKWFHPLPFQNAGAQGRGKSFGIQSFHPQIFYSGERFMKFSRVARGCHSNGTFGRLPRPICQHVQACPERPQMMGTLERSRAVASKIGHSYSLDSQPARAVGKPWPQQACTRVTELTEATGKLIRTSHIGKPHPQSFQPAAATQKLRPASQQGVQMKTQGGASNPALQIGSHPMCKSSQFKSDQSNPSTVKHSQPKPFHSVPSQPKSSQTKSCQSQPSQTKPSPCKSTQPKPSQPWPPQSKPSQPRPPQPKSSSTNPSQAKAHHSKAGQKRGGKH
UniProt P07358, whole entry, looked up: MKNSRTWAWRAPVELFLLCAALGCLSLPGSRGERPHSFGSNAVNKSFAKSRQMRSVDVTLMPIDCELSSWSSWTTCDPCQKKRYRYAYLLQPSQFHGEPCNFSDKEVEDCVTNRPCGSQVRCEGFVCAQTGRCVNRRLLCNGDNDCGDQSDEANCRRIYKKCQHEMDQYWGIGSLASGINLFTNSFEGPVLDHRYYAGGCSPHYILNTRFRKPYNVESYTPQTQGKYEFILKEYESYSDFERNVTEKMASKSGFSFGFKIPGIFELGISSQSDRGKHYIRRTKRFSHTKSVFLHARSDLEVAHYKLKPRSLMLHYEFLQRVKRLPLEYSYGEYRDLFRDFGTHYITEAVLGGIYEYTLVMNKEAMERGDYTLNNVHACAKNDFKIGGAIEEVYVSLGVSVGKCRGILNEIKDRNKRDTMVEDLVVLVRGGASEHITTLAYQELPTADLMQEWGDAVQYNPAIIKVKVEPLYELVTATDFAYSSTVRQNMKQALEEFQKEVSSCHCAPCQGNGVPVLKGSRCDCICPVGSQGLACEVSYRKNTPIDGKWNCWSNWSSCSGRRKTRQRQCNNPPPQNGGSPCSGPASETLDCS

Legend:
Assay in all cases: log2 fold change, soluble protein after heating vs DMSO (PISA); higher = thermal stabilisation; K562 cells, 10 uM, 30 min; active = over 0.2 and 3.5 SD of the protein, either way, in both replicates (recomputed)
[1] = compound: COC1=CC=C(C=C1)CN2C=CC3=C2C=C(C=C3)C(=O)NO
Method in brief: (§1)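 Values are thermal stability changes relative to control samples and are taken from duplicates. They are stated as log2 fold changes. Before quantification by TMTpro 16plex LC-MS/MS with equalised channel sums, K562 cells at 2×10^6 cells/mL were treated with 10 μM compound for 30 min, heated in aliquots for 3 min across 48°C-58°C, pooled, extracted in PBS with 0.5% NP-40 at 4°C, and centrifuged at 21,000xg for 90 min to give the soluble supernatant.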

alisertib = compound: COc1cc(Nc2ncc3c(n2)-c2ccc(Cl)cc2C(c2c(F)cccc2OC)=NC3)ccc1C(=O)O [alisertib]
Method in brief: as §1

[2] = compound: COc1cccc2cc(-c3nc([C@H]4CC[C@H](C(=O)O)CC4)n4ncnc(N)c34)[nH]c12
Method in brief: as §1

crizotinib = compound: C[C@@H](Oc1cc(-c2cnn(C3CCNCC3)c2)cnc1N)c1c(Cl)ccc(F)c1Cl [crizotinib]
Method in brief: as §1

doramapimod = compound: Cc1ccc(-n2nc(C(C)(C)C)cc2NC(=O)Nc2ccc(OCCN3CCOCC3)c3ccccc23)cc1 [doramapimod]
Method in brief: as §1

filanesib = compound: CON(C)C(=O)N1N=C(c2cc(F)ccc2F)S[C@@]1(CCCN)c1ccccc1 [filanesib]
Method in brief: as §1

idasanutlin = compound: COc1cc(C(=O)O)ccc1NC(=O)[C@@H]1N[C@@H](CC(C)(C)C)[C@](C#N)(c2ccc(Cl)cc2F)[C@H]1c1cccc(Cl)c1F [idasanutlin]
Method in brief: as §1

[3] = compound: COc1cc2nc(-c3cc(F)ccc3O)nc(N[C@@H]3CNC[C@H]3C(C)(C)O)c2cc1OC
Method in brief: as §1

lapatinib = compound: CS(=O)(=O)CCNCc1ccc(-c2ccc3ncnc(Nc4ccc(OCc5cccc(F)c5)c(Cl)c4)c3c2)o1 [lapatinib]
Method in brief: as §1

[4] = compound: CS(=O)(=O)c1ccc(-c2cnc(N)c(C(=O)Nc3ccccc3)n2)cc1
Method in brief: as §1

[5] = compound: C[C@@H]1COCCN1C2=NC(=NC(=C2)C3(CC3)S(=O)(=O)C)C4=C5C=CNC5=CC=C4
Method in brief: as §1

zotarolimus = compound: CO[C@H]1C[C@@H]2CC[C@@H](C)[C@@](O)(O2)C(=O)C(=O)N2CCCC[C@H]2C(=O)O[C@H]([C@H](C)C[C@@H]2CC[C@H](n3cnnn3)[C@H](OC)C2)CC(=O)[C@H](C)/C=C(\C)[C@@H](O)[C@@H](OC)C(=O)[C@H](C)C[C@H](C)/C=C/C=C/C=C/1C [zotarolimus]
Method in brief: as §1

pictilisib = compound: CS(=O)(=O)N1CCN(Cc2cc3nc(-c4cccc5[nH]ncc45)nc(N4CCOCC4)c3s2)CC1 [pictilisib]
Method in brief: as §1

[6] = compound: C[C@H](C1=CC=C(C=C1)C(=O)NC2=C3C=CNC3=NC=C2)N
Method in brief: as §1

gandotinib = compound: Cc1cc(Nc2cc(CN3CCOCC3)c3nc(C)c(Cc4ccc(Cl)cc4F)n3n2)n[nH]1 [gandotinib]
Method in brief: as §1

ispinesib = compound: Cc1ccc(C(=O)N(CCCN)[C@@H](c2nc3cc(Cl)ccc3c(=O)n2Cc2ccccc2)C(C)C)cc1 [ispinesib]
Method in brief: as §1

gefitinib = compound: COc1cc2ncnc(Nc3ccc(F)c(Cl)c3)c2cc1OCCCN1CCOCC1 [gefitinib]
Method in brief: as §1

duvelisib = compound: C[C@H](Nc1ncnc2nc[nH]c12)c1cc2cccc(Cl)c2c(=O)n1-c1ccccc1 [duvelisib]
Method in brief: as §1

tozasertib = compound: Cc1cc(Nc2cc(N3CCN(C)CC3)nc(Sc3ccc(NC(=O)C4CC4)cc3)n2)n[nH]1 [tozasertib]
Method in brief: as §1

[7] = compound: Cc1cc(SCc2sc(-c3ccc(C(F)(F)F)cc3)nc2C)ccc1OCC(=O)O
Method in brief: as §1

Measured: log2 fold change

CABLES2 (UniProt Q9BTV7)
inactive: [1] 0.068 | alisertib -0.232 | [2] 0.036 | crizotinib -0.075 | doramapimod 0.002

C16orf70 (UniProt Q9BSU1)
inactive: [1] -0.149 | filanesib -0.351 | idasanutlin 0.226 | [3] -0.01 | lapatinib 0.13 | [4] 0.266 | crizotinib 0.014 | [5] -0.291 | doramapimod 0.049

CALR3 (UniProt Q96L12)
inactive: [1] 0.02 | crizotinib 0.234 | doramapimod 0.037

CALD1 (UniProt Q05682)
inactive: [1] -0.008 | filanesib 0.009 | zotarolimus -0.617 | [3] -0.079 | lapatinib 0.136 | pictilisib 0.104 | [4] -0.284 | crizotinib 0.08 | [5] -0.123 | [6] 0.045 | gandotinib -0.173 | doramapimod -0.096 | ispinesib -0.203

C6orf136 isoform 4 (UniProt Q5SQH8)
inactive: [1] 0.048 | filanesib -0.292 | idasanutlin -0.03 | alisertib -0.38 | gefitinib 0.01 | [2] -0.037 | [4] 0.058 | crizotinib 0.064 | duvelisib 0.027 | tozasertib -0.03 | [7] 0.133 | doramapimod 0.149 | ispinesib -0.022

CAPN15 (UniProt O75808)
inactive: filanesib -0.041 | [3] 0.295 | lapatinib 0.244 | pictilisib -0.158 | [4] 0.014 | [5] -0.141 | gandotinib 0.062

C1orf50 (UniProt Q9BV19)
inactive: filanesib 0.079 | zotarolimus 0.162 | idasanutlin 0.21 | alisertib -0.088 | [3] -0.068 | gefitinib 0.043 | [2] 0.029 | lapatinib -0.093 | pictilisib -0.177 | [4] 0.019 | [5] 0.08 | [6] -0.123 | duvelisib 0.245 | gandotinib 0.192 | tozasertib 0.02 | [7] 0.138 | ispinesib 0.075

C7orf26 (UniProt Q96N11)
inactive: [1] -0.003 | filanesib -0.018 | gefitinib -0.063 | [4] 0.063 | crizotinib -0.049 | [5] 0.145 | doramapimod 0.125 | ispinesib 0.034

BTN2A1 (UniProt Q7KYR7)
inactive: [1] 0.037 | zotarolimus 0.01 | [3] 0.116 | gefitinib -0.005 | lapatinib 0.111 | pictilisib -0.032 | crizotinib 0.158 | [5] -0.288 | [6] -0.019 | duvelisib 0.165 | gandotinib 0.194 | tozasertib 0.035 | [7] -0.11 | doramapimod -0.091 | ispinesib -0.022

CAPNS2 (UniProt Q96L46)
inactive: [1] -0.007 | alisertib 1.12 | [2] -0.3 | crizotinib 0.105 | doramapimod 0.092 | ispinesib 0.112

C18orf32 (UniProt Q8TCD1)
inactive: filanesib -0.009 | zotarolimus 0.015 | idasanutlin -0.107 | alisertib -0.041 | [3] -0.042 | gefitinib -0.029 | [2] 0.055 | lapatinib -0.12 | pictilisib 0.015 | [4] -0.037 | [5] -0.012 | [6] -0.065 | gandotinib 0 | tozasertib -0.032 | ispinesib 0.183

C1orf167 isoform 2 (UniProt Q5SNV9)
inactive: [1] 0.043 | filanesib 0.253 | zotarolimus -0.064 | alisertib 0.001 | [3] 0.392 | gefitinib -0.061 | [2] -0.001 | lapatinib -0.117 | [4] -0.034 | crizotinib -0.029 | [5] -0.006 | [6] 0.509 | duvelisib 0.062 | [7] 0.046 | doramapimod -0.012

CAPN1 (UniProt E9PLX0)
inactive: [1] 0.124 | filanesib 0.259 | [4] 0.023 | crizotinib 0.054 | doramapimod -0.038

C11orf96 (UniProt Q7Z7L8)
inactive: [1] 0.26 | zotarolimus -0.25 | [3] 0.009 | lapatinib 0.036 | pictilisib 0.028 | crizotinib -0.242 | [5] -0.138 | [6] 0.033 | gandotinib -0.066 | doramapimod 0.167 | ispinesib 0.047

C5 (UniProt P01031)
inactive: [1] -0.216 | filanesib 0.222 | zotarolimus 0.038 | pictilisib 0.189 | [4] -0.096 | crizotinib -0.248 | [5] 0.248 | [6] 0.444 | gandotinib 0.008 | tozasertib -0.056 | doramapimod 0.132

BTD isoform 3 (UniProt P43251)
inactive: [1] -0.048 | filanesib 0.054 | zotarolimus -0.032 | alisertib -0.094 | [3] 0.071 | gefitinib 0.038 | [2] 0.02 | lapatinib -0.043 | [4] -0.028 | crizotinib -0.013 | [5] 0.066 | [6] -0.156 | duvelisib -0.011 | tozasertib -0.033 | [7] -0.018 | doramapimod 0.105 | ispinesib 0.002

C5orf34 (UniProt Q96MH7)
inactive: alisertib -0.109 | [2] -0.078

CABIN1 (UniProt Q9Y6J0)
inactive: alisertib 0.01 | [2] 0.154

BTBD1 (UniProt Q9H0C5)
inactive: ispinesib 0.153

C3AR1 (UniProt Q16581)
inactive: gefitinib 0.109

C5orf24 (UniProt Q7Z6I8)
inactive: alisertib -0.115 | [3] -0.128 | gefitinib -0.338 | [2] -0.014 | lapatinib 0.112 | pictilisib -0.064 | [5] -0.046 | duvelisib 0.045 | gandotinib -0.014 | tozasertib -0.099 | [7] -0.203

C1orf43 (UniProt Q9BWL3)
inactive: filanesib -0.005 | [4] 0.171

BTBD10 isoform 2 (UniProt Q9BSF8)
inactive: idasanutlin 0.127 | [3] 0.193 | lapatinib -0.32 | pictilisib 0.06 | duvelisib -0.077 | gandotinib -0.274 | [7] 0.169

C19orf12 (UniProt Q9NSK7)
inactive: idasanutlin 0.087 | alisertib -0.084 | [3] -0.216 | gefitinib 0.038 | [2] 0.074 | lapatinib 0.219 | [5] 0.092 | tozasertib 0.002

C4orf46 (UniProt Q504U0)
inactive: gefitinib 0.012

CAPNS1 (UniProt U3KPR7)
inactive: idasanutlin 0.086

C5orf30 (UniProt Q96GV9)
inactive: idasanutlin 0.022 | [3] -0.094 | lapatinib -0.21 | [5] 0.352

CALML3 (UniProt P27482)
inactive: idasanutlin 0.527 | alisertib 1.72 | [3] -0.277 | [2] -0.19 | lapatinib 0.108 | [5] -0.335 | duvelisib 0.035 | tozasertib 0.191 | [7] 0.049

C3orf86 (UniProt P0DN24)
inactive: alisertib 0.143 | gefitinib -0.078 | [2] -0.177

C12orf60 (UniProt Q5U649)
inactive: [3] 0.191 | lapatinib 0.085 | [5] -0.36 | tozasertib 0.178

C12orf49 (UniProt Q9H741)
inactive: pictilisib -0.012 | gandotinib 0.16

C7orf50 (UniProt Q9BRJ6)
inactive: zotarolimus 0.119 | idasanutlin 0.159 | [6] 0.352 | duvelisib 0.043 | tozasertib 0.021 | [7] -0.06 | ispinesib -0.034

C12orf10 (UniProt Q9HB07)
inactive: pictilisib -0.121 | gandotinib 0.134

CA1 (UniProt E5RIF9)
inactive: [5] -0.134 | [7] -0.613

CALM1 (UniProt G3V361)
inactive: filanesib -0.138 | [4] -0.051 | duvelisib -0.03 | [7] -0.121

CA2 (UniProt P00918)
inactive: idasanutlin 0.156 | alisertib 0.253 | [3] -0.063 | gefitinib 0.04 | [2] 0.036 | lapatinib -0.261 | duvelisib -0.219 | tozasertib 0.034 | [7] -0.083

CAD (UniProt H7BZB3)
inactive: idasanutlin -0.006

C18orf21 (UniProt Q32NC0)
inactive: alisertib -0.019 | [2] -0.243

CAMK2A isoform 2 (UniProt Q9UQM7)
inactive: duvelisib 1.76 | [7] 1.17

C6orf62 (UniProt Q9GZU0)
inactive: pictilisib 0.031 | [5] -0.004 | gandotinib 0.045

C9orf16 (UniProt Q9BUW7)
inactive: alisertib -0.069 | gefitinib -0.005 | [2] 0 | pictilisib 0.003 | duvelisib 0.046 | gandotinib 0.119 | [7] 0.025

C9 (UniProt P02748)
inactive: zotarolimus -0.279 | alisertib -0.16 | [2] 0.201 | [5] 0.376 | [6] 0.129 | duvelisib 0.018 | tozasertib -0.144 | [7] -0.047 | ispinesib 0.026

BSN (UniProt Q9UPA5)
inactive: zotarolimus -0.101 | idasanutlin -0.014 | [6] 0.066

C8orf37 (UniProt Q96NL8)
inactive: [5] -0.083 | tozasertib -0.069

CA3 (UniProt P07451)
inactive: filanesib 0.014 | [4] -0.183 | [5] 0.038 | ispinesib 0.059

CAMK1 (UniProt Q14012)
inactive: ispinesib 0.328

CARD6 (UniProt Q9BX69)
inactive: ispinesib 0.084

Retrieved one by one from above (two):
CAPNS2 (UniProt Q96L46)
inactive: [1] -0.007 | alisertib 1.12 | [2] -0.3 | crizotinib 0.105 | doramapimod 0.092 | ispinesib 0.112

CA3 (UniProt P07451)
inactive: filanesib 0.014 | [4] -0.183 | [5] 0.038 | ispinesib 0.059

Later entries

C17orf99 (UniProt Q6UX52)
inactive: idasanutlin 0.417 | alisertib 0.359 | [2] -0.097 | pictilisib 0.108 | [5] 0.053 | gandotinib 0.176

3 neighbouring records out of the list so far, for reference:
C8orf37 (UniProt Q96NL8)
inactive: [5] -0.083 | tozasertib -0.069

CA3 (UniProt P07451)
inactive: filanesib 0.014 | [4] -0.183 | [5] 0.038 | ispinesib 0.059

CAMK1 (UniProt Q14012)
inactive: ispinesib 0.328

More entries follow.

CAMKK1 isoform 2 (UniProt Q8N5S9)
inactive: [3] 0.035 | lapatinib -0.02 | pictilisib -0.067 | gandotinib 0.311

C8B (UniProt P07358)
inactive: duvelisib -0.057 | [7] 0.038
